Laboratory results as given in paper PMC7322359.

B1: Rho guanine nucleotide exchange factor 7 (protein, UniProt O55043 1-646)
chain: MTDNANSQLVVRAKFNFQQTNEDELSFSKGDVIHVTRVEEGGWWEGTHNGRTGWFPSNYVREIKPSEKPVSPKSGTLKSPPKGFDTTAINKSYYNVVLQNILETEHEYSKELQSVLSTYLWPLQTSEKLSSANTSYLMGNLEEISSFQQVLVQSLEECTKSPEAQQRVGGCFLSLMPQMRTLYLAYCANHPSAVSVLTEHSEDLGEFMETKGASSPGILVLTTGLSKPFMRLDKYPTLLKELERHMEDYHPDRQDIQKSMTAFKNLSAQCQEVRKRKELELQILTEPIRSWEGDDIKTLGSVTYMSQVTIQCAGSEEKNERYLLLFPNLLLMLSASPRMSGFIYQGKLPTTGMTITKLEDSENHRNAFEISGSMIERILVSCNNQQDLHEWVEHLQRQTKVTSVSNPTIKPHSVPSHTLPSHPLTPSSKHADSKPVALTPAYHTLPHPSHHGTPHTTISWGPLEPPKTPKPWSLSCLRPAPPLRPSAALCYKEDLSRSPKTMKKLLPKRKPERKPSDEEFAVRKSTAALEEDAQILKVIEAYCTSAKTRQTLNSSSRKESAPQVLLPEEEKIIVEETKSNGQTVIEEKSLVDTVYALKDEVQELRQDNKKMKKSLEEEQRARKDLEKLVRKVLKNMNDPAWDETNL
B2: Nucleolar RNA helicase 2 (protein, UniProt Q3B8Q1 1-782)
chain: MPGKLRSASKSESEGTEESMETLQKPSEKKTRKEKPKSKTDEATEGVEEAASSKVKAVKKKGPSEDDVGPPKSKKAKKQEEEPQDDPASKSKTSKKKKEPLEKKAPSAKTKEMKAEEPSEEEADAPKPKKTKKGKEANGDVGEKSPGLKNGLSHPKPDSSSTQAPGEESETEKEIPVEQKEGAFSNFPISEETVKLLKARGVNFLFPIQAKTFHHVYSGKDLIAQARTGTGKTFSFAIPLIEKLQGGLQERKRGRAPQVLVLAPTRELANQVSKDFSDITKKLSVACFYGGTPYGGQIERMRSGIDILVGTPGRIKDHLQNGKLDLTKLKHVVLDEVDQMLDMGFADQVEEILCVAYKKDSEDNPQTLLFSATCPHWVFNVAKKYMKSTYEQVDLIGKKTQKAAITVEHLAIKCHWTERAAVIGDVIRVYSGHQGRTIIFCETKKDAQELSQNTCIKQDAQSLHGDIPQKQREITLKGFRNGNFGVLVATNVAARGLDIPEVDLVVQSCPPKDVESYIHRSGRTGRAGRTGVCICFYQHKEEYQLAQVEQKAGIKFKRIGVPSATEIIKASSKDAIRLLDSVPPTAIGHFKQSAEKLIEEKGAVEALAAALAHISGATSVDQRSLINSQAGFVTMILRCSVEMPNISYAWKELKEQLGESIDAKVKGMVFLKGKLGVCFDVRTEAVTEIKEKWHDSRRWQLTVATEQPELEGPPEGYRGGRGQRDGSRGSFRGQRGGSRNFRGQGQRGGSRNFRGQRPGGGNKSNRSPNKGQKRSFSKAFGQ
B3: Spermatogenesis-associated, serine-rich 2 (protein, UniProt F1LX68 1-550)
chain: MSRKQSQKDSSGFIFDLQSNTVLAQGGTFENMKEKINAVRAIVPNKSNNEIILVLQHFDNCVDKTVQAFMEGSASEVLKEWIVTGKKKNKKKKSKPKPASEASGSAPDSSKSAPAEEGQPASSEKGSINGYHVNGAINDTESVDSLSEGLETLSIDARELEDPEFATADALDRAGSVLENGVSDFEPKSLTTHSISNVQQSRNAAKSLSRATTGAQVSNLGMENVPLSSTNKKLGSNIEKSVKDLQRCTVSLARYRVVVKEEMDASIKKMKQAFAELQSCLMDREVALLAEMDKVKAEAMEILLSRQKKAELLKKMTDVAVRMSEEQLVELRADIKHFVSERKYDEDLGRVARFTCDVETLKQSIDSFGQVSHPKNSYSTRSRCSSLLPVSLLPVSCSGPSDVSAASSAPDASAPSLPGANKRNSAPREASAAMTNSSDRPCQAHREVFSGNRRGGQGYRPQNQKTTDPPNQGRHDNAGRYRNSSWYSSGPRHQAVPPQAPGSAGEWSRPYSAGTNGTGASSEPSPPKPSFKKGLPQRKPRASQAEAANS

target: StAR Related Lipid Transfer Domain Containing 10 (rat (endogenous in INS1 (832/13))); test: affinity purification with mass spectrometry; endogenous STARD10 immunoprecipitated from 1 mg INS1 (832/13) lysate with anti-PCTP-L (STARD10) antibody on Dynabeads Protein A, overnight at 4 °C; lysis buffer 20 mM HEPES, 150 mM NaCl, 1% Igepal; compared with rabbit IgG isotype control; on-bead trypsin digest, TMT labelling, nano-LC MS/MS

binding, binds:
B1, B2, B3

No constants are given. Whether binding was seen depends on the method and setting. Binding seen in cells or lysates may run through a third protein. These calls come from enrichment with a bait or labelling near it, and not all partners need be listed.
